Data reported in patent EP4796176A2, “METHOD OF ALLEVIATING JOINT PAIN” (OrthoTrophix, Inc., priority 2017, dated 2026).
Not every detail of the peptide structures is certain; ends, links or a residue may be inferred. Where no end group is shown, it is not given here.

What was measured:
[1] = tested on: subjects with bilateral patello-femoral knee osteoarthritis; test: Randomized double-blind placebo-controlled clinical study, efficacy by KOOS/WOMAC patient reported outcomes; assay type: in vivo, human; settings: [Index score change] - [Control score change], 200mg per dose
[2] = tested on: goat model of standardized large cartilage defects; settings: four weekly intra-articular injections, 125 mg and 250 mg; 6 months post-surgery; compared to vehicle control group; cited from earlier work

TDLQERGDNDISPFSGDGQPFKD-NH2 [TPX-100]
Score Change from Baseline to 12 Months, Difference: How often do you experience RIGHT/LEFT knee pain? ([1]; KOOS Pain question 1, placebo in contralateral knee, p-value 0.04): -0.26
Score Change from Baseline to 12 Months, Difference: Twisting/pivoting on your knee ([1]; KOOS Pain question 2, p-value 0.52): -0.09
Score Change from Baseline to 12 Months, Difference: Straightening knee fully moving ([1]; KOOS Pain question 3, p-value 0.27): -0.12
Score Change from Baseline to 12 Months, Difference: Bending knee fully ([1]; KOOS Pain question 4, p-value 0.07): -0.24
Score Change from Baseline to 12 Months, Difference: Walking on flat surface ([1]; KOOS Pain question 5, p-value 0.29): -0.12
Score Change from Baseline to 12 Months, Difference: Going up or down stairs ([1]; KOOS Pain question 6, p-value 0.004): -0.33
Score Change from Baseline to 12 Months, Difference: At night while in bed ([1]; KOOS Pain question 7, p-value 1.00): 0.00
Score Change from Baseline to 12 Months, Difference: Sitting or lying ([1]; KOOS Pain question 8, p-value 0.84): -0.02
Score Change from Baseline to 12 Months, Difference: Standing upright ([1]; KOOS Pain question 9, p-value 0.15): -0.16
articular cartilage regeneration [2]: statistically significant articular cartilage regeneration
